# Patent publication US10064885B2, “Metabolic gene, enzyme, and flux targets for cancer therapy” (Massachusetts Institute of Technology, priority 2010, dated 2018)
# At least one structure is not confirmed: it was looked up by name or label, or the drawing left a doubt.
# System: A549 cells
# Assay: Isotopomer Spectral Analysis (ISA) of lipogenesis in A549 cells
# Assay type: cell-based, human
# Settings: 5 mM DCA
# Protocol: Cell Culture, Isotopic Labeling, and Hypoxia. All cell lines were cultured in Dulbecco's Modified Eagle Medium (DMEM; Mediatech) containing 10% fetal bovine serum (FBS; Invitrogen) and 100 U/ml penicillin/streptomycin (P/S; Mediatech) unless otherwise mentioned. Cell lines were obtained from ATCC unless otherwise noted. The VC3 glioma cell line was provided by Tim Lautenschlaeger (Ohio State University), MDA-MB-231 and HCT116 cell lines were provided by Ferdinando Chiaradonna (University of Milano-Bicocca), MRC5 cells were provided by Stephen Lippard (MIT), SN12C, ACHN, and 786-O cells were provided by Kevin Courtney and Lew Cantley (Harvard Medical School), and MCF10A cells were provided by Joan Brugge (Harvard Medical School), and Huh7 cells were provided by Mike Hemann (MIT). MCF10A cells were cultured in custom DMEM/F12 (Hyclone) containing 5% horse serum, 20 ng/ml EGF, 10 μg/ml insulin, 100 ng/ml cholera toxin, 0.5 mg/ml hydrocortisone, 100 U/ml penicillin/streptomycin, and labeled/unlabeled glucose and glutamine at 18 mM and 2.5 mM, respectively. PRC3, WT8, pTV, and pTR cell lines were subcloned from the 786-O cell line as previously described (42, 43). For isotopic labeling experiments, cells were cultured in 6 well plates in glucose- and glutamine-free DMEM (Sigma) containing 10% dialyzed FBS (Invitrogen), 100 U/ml P/S, naturally labeled glucose or glutamine, and the appropriate tracer, including [U-^13C5]glutamine (Isotec), [5-^13C]glutamine (C/D/N Isotopes), [1-^13C]glutamine, [U-^13C6]glucose, [1,2-^13C2]glucose (all from Cambridge Isotope Labs). Steady state labeling of organic and amino acids was accomplished by culturing subconfluent cells in tracer medium for 24 hours. […] The internal gas content was monitored using Fyrite gas analyzers (Bacharach) for CO2 and O2. […]
# Metabolite Extraction and Gas Chromatography/Mass Spectrometry (GC/MS) Analysis. […] In some ISA experiments, cells were trypsinized, counted, and pelleted prior to lipid extraction as described above. […]
smiles,measurement,setting,value
"O=C(O)C(Cl)Cl [DCA, dichloroacetate]",glucose oxidation,"A549, hypoxia",partially restored
same,reductive glutamine metabolism (contribution to lipogenesis),"A549, hypoxia",inhibited
same,carbon utilization (contribution of glucose oxidation and glutamine reduction to lipogenesis),"A549, normoxia",no observable effect
